Test results taken from the supplement of paper PMC10849652.
This is one part of the list.

Chains of the proteins cited; added tags and fusions are not shown. Lines headed by an entry give the natural chain unless they say otherwise; changes in a name come on top.
UniProt Q0VG06: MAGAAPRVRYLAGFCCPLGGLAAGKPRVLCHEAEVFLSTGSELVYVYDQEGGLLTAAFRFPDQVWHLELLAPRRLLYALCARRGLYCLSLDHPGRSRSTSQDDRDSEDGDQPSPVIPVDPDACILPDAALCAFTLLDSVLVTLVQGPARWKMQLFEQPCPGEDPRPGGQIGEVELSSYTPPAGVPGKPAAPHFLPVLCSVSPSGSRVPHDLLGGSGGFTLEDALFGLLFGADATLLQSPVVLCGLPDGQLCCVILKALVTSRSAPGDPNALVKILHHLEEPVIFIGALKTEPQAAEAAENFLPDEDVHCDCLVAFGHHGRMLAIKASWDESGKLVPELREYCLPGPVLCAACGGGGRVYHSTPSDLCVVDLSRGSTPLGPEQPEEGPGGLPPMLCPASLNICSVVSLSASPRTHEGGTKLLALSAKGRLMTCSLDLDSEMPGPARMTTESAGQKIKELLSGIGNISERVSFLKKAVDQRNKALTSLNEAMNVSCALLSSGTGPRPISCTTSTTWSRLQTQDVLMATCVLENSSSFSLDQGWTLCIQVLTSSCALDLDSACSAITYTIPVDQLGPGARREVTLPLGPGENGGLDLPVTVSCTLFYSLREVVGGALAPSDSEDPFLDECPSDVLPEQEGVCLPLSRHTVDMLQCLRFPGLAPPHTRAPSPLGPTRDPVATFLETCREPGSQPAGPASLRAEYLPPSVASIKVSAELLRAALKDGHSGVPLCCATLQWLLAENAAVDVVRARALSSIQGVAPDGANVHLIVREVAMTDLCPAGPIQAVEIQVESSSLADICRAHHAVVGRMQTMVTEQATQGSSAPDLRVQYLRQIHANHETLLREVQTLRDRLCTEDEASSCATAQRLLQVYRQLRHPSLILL
UniProt Q01844: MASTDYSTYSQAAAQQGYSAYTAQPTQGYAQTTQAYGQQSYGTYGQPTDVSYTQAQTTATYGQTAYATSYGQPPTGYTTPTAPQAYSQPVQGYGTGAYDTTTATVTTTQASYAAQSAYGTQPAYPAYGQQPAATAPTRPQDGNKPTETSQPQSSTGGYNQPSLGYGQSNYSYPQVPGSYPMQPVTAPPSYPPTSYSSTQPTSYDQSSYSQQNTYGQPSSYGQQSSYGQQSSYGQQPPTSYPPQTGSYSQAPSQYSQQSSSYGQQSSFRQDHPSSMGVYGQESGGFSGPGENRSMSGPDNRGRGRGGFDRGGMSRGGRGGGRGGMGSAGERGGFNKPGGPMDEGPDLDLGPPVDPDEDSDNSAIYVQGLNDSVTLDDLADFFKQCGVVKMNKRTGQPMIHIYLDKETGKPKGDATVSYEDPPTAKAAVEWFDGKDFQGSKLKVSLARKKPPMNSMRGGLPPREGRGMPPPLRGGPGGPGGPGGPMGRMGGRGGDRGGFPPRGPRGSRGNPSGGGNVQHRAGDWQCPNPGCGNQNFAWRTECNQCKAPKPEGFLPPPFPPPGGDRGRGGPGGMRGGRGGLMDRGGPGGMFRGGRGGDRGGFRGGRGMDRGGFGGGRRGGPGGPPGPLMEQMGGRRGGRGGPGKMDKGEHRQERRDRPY
UniProt Q9UBC2: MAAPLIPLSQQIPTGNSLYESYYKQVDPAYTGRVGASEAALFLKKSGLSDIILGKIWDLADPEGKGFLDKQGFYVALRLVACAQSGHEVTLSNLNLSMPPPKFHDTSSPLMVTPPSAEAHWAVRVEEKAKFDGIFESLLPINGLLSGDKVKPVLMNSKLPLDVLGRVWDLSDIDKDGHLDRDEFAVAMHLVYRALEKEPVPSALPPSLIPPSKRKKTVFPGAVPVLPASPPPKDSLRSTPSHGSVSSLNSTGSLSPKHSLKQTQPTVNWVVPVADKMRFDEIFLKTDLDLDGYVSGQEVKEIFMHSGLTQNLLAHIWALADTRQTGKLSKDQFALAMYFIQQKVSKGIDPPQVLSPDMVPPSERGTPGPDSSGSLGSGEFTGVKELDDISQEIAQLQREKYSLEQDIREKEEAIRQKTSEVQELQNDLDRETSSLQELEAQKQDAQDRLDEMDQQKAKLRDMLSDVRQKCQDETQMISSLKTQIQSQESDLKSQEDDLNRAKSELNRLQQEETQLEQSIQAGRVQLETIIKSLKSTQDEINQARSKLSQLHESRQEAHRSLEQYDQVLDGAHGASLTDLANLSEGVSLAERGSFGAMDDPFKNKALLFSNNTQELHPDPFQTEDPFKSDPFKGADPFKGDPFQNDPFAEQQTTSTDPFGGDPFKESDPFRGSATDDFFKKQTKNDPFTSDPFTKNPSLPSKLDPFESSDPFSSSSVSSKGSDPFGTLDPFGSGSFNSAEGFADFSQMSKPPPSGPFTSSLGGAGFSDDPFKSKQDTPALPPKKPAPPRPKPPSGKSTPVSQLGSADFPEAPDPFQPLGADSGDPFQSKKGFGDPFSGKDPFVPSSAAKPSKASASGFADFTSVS
UniProt Q8TAG9: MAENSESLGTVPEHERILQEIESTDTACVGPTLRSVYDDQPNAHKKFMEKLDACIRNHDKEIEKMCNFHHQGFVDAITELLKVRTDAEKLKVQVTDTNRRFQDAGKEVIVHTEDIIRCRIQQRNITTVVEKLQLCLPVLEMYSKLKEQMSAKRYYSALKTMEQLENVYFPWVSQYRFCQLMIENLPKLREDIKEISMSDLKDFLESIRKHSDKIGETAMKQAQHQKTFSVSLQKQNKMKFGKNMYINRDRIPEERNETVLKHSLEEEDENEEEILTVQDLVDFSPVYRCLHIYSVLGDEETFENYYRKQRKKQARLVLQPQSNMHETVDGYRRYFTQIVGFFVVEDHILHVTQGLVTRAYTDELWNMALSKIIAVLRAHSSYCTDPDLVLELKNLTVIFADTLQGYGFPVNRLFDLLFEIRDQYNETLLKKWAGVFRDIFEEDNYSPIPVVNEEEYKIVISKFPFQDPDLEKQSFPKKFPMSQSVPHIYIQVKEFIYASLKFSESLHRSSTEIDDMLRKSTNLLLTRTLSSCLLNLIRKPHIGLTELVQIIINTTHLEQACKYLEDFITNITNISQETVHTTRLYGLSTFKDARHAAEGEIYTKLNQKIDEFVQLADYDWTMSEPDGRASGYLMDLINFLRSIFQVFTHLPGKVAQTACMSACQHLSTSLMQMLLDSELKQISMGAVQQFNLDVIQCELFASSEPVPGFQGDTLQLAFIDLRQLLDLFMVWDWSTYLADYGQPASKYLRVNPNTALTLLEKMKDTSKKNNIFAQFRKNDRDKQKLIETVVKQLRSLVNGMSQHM
UniProt Q8IYI6: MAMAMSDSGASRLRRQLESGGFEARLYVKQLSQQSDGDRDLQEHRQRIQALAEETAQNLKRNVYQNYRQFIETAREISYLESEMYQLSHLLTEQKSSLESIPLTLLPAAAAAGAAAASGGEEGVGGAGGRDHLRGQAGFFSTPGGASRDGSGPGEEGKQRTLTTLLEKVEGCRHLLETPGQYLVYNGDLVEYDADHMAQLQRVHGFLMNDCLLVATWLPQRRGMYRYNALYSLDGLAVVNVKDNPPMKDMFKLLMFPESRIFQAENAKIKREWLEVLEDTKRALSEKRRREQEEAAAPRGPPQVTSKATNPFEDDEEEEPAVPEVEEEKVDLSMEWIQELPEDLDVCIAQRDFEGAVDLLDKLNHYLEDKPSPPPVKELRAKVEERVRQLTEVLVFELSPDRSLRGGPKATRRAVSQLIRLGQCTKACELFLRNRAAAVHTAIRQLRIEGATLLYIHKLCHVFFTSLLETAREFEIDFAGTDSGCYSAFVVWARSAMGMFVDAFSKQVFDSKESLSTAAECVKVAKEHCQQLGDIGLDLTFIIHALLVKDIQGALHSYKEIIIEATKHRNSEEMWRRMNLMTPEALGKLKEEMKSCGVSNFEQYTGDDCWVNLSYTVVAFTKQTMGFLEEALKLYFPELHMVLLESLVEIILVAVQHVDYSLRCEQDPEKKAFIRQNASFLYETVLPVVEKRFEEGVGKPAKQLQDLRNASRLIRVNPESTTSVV
UniProt Q6P587: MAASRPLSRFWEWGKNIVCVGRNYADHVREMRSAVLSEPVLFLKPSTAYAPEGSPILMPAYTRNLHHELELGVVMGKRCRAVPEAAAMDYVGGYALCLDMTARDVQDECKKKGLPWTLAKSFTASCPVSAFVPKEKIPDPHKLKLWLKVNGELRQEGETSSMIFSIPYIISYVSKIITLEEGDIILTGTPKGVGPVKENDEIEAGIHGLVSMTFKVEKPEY
UniProt Q13216, whole entry, looked up: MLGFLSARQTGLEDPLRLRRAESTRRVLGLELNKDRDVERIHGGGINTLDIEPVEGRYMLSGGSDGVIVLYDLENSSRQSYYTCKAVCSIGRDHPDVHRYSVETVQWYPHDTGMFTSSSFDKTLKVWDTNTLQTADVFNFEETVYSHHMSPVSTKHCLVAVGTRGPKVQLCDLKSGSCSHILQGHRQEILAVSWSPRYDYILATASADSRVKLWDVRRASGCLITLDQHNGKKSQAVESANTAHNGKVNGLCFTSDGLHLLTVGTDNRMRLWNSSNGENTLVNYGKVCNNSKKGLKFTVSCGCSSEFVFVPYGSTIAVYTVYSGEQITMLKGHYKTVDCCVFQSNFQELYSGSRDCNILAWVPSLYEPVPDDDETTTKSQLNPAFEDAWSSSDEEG
UniProt Q9NQT5, whole entry, looked up: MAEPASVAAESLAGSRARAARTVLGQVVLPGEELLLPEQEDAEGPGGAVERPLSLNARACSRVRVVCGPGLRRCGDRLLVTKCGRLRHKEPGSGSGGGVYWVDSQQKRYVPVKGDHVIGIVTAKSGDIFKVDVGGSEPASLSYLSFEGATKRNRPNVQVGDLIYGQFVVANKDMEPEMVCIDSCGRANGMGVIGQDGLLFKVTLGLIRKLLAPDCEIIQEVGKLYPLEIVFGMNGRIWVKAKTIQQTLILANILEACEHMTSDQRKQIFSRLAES
UniProt Q96A26: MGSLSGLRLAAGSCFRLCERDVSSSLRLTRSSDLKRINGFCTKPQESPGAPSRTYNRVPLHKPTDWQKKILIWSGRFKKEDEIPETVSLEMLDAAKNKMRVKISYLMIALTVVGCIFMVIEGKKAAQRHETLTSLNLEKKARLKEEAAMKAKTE
UniProt Q7L775: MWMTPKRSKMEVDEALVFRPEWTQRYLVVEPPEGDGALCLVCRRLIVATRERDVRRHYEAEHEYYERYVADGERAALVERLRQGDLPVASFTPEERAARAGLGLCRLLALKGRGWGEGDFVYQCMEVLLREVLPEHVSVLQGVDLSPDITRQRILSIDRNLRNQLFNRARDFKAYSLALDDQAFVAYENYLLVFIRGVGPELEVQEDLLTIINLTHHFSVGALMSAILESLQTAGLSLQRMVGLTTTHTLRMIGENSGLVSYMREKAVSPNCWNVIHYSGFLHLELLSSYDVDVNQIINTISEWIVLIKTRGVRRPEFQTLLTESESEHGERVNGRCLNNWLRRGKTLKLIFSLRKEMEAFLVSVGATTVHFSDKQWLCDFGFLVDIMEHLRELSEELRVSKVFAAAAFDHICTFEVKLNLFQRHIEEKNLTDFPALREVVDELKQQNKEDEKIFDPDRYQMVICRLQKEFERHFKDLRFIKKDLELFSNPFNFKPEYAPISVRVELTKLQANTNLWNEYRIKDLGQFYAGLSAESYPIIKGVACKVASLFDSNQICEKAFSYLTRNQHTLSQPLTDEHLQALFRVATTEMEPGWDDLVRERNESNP
UniProt P11474: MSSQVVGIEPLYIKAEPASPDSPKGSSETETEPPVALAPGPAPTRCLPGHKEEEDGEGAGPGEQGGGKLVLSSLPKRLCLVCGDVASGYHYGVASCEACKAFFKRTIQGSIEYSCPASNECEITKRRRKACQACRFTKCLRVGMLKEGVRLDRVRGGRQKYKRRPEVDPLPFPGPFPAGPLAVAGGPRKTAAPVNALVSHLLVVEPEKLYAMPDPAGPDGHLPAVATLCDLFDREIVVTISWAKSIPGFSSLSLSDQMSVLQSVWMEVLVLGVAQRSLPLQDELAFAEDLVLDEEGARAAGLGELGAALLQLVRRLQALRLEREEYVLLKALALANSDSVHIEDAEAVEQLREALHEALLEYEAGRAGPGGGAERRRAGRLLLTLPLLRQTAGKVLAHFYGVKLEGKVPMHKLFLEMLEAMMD
UniProt P16422: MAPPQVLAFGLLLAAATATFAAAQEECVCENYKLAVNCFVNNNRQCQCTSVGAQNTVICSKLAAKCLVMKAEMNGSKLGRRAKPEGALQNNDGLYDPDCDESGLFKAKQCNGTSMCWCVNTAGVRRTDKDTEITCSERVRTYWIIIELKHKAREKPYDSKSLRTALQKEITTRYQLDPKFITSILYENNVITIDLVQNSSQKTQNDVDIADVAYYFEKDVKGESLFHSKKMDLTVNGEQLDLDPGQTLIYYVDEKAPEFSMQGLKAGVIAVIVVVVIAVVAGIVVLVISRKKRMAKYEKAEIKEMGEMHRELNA

Compound: COc1cccc2cc(-c3nc([C@H]4CC[C@H](C(=O)O)CC4)n4ncnc(N)c34)[nH]c12
Assay: log2 fold change, soluble protein after heating vs DMSO (PISA); higher = thermal stabilisation; K562 cells, 10 uM, 30 min; active = over 0.2 and 3.5 SD of the protein, either way, in both replicates (recomputed)
Method in brief: (§1)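 Soluble protein was quantified by TMTpro 16plex LC-MS/MS after channel sums were equalised. It was obtained as the supernatant after 21,000xg for 90 min from pooled aliquots of K562 cells (2×10^6 cells/mL, 10 μM compound, 30 min) heated for 3 min across 48°C-58°C and extracted in PBS with 0.5% NP-40 at 4°C. Thermal stability values are relative to control samples and come from duplicates. They are given as log2 fold changes.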

Question: Which log2 fold change does the source give for ERG28 (UniProt Q9UKR5) here?
Answer: Its log2 fold change is inactive: -0.005.

Question: For ERO1B (UniProt Q86YB8), which log2 fold change is on record?
Answer: Its log2 fold change is inactive: 0.024.

Question: How did the log2 fold change turn out when FAAP100 (UniProt Q0VG06) was run?
Answer: Its log2 fold change is inactive: 0.004.

Question: FAM160B1 (UniProt Q5W0V3) was tested. Which log2 fold change did it give?
Answer: The log2 fold change was inactive: -0.027.

Question: Which log2 fold change does the source give for ERAL1 (UniProt O75616) here?
Answer: Its log2 fold change is inactive: 0.135.

Question: Which log2 fold change does the source give for EWSR1 isoform 5 (UniProt Q01844) here?
Answer: Its log2 fold change is inactive: 0.018.

Question: With FADD (UniProt Q13158) as the target, how does the log2 fold change read?
Answer: Its log2 fold change is inactive: -0.031.

Question: How did the log2 fold change turn out when ERGIC2 (UniProt Q96RQ1) was run?
Answer: The log2 fold change was inactive: 0.037.

Question: How did the log2 fold change turn out when EPS15L1 isoform 2 (UniProt Q9UBC2) was run?
Answer: Its log2 fold change is inactive: -0.039.

Question: EXOC6 (UniProt Q8TAG9) was tested. Which log2 fold change did it give?
Answer: Its log2 fold change is inactive: -0.101.

Question: With F2 (UniProt P00734) as the target, how does the log2 fold change read?
Answer: The log2 fold change was inactive: 0.27.

Question: Which log2 fold change does the source give for EXOC8 (UniProt Q8IYI6) here?
Answer: The log2 fold change was inactive: -0.003.

Question: With FAHD1 (UniProt Q6P587) as the target, how does the log2 fold change read?
Answer: Its log2 fold change is inactive: 0.061.

Question: With ERP29 (UniProt P30040) as the target, how does the log2 fold change read?
Answer: The log2 fold change was inactive: -0.007.

Question: How did the log2 fold change turn out when ERCC8 (UniProt Q13216) was run?
Answer: The log2 fold change was inactive: 0.109.

Question: How did the log2 fold change turn out when ERO1A (UniProt Q96HE7) was run?
Answer: The log2 fold change was inactive: -0.005.

Question: EXOSC3 (UniProt Q9NQT5) was tested. Which log2 fold change did it give?
Answer: Its log2 fold change is inactive: -0.025.

Question: With FAM133B (UniProt Q5BKY9) as the target, how does the log2 fold change read?
Answer: The log2 fold change was inactive: 0.03.

Question: Which log2 fold change does the source give for EPHA6 (UniProt Q9UF33) here?
Answer: Its log2 fold change is inactive: 0.29.

Question: Which log2 fold change does the source give for ERCC6 (UniProt Q03468) here?
Answer: Its log2 fold change is inactive: -0.042.

Question: Which log2 fold change does the source give for FAM162A (UniProt Q96A26) here?
Answer: Its log2 fold change is inactive: 0.071.

Question: With FABP5 (UniProt Q01469) as the target, how does the log2 fold change read?
Answer: The log2 fold change was inactive: 0.03.

Question: How did the log2 fold change turn out when EPRS (UniProt P07814) was run?
Answer: Its log2 fold change is inactive: -0.203.

Question: How did the log2 fold change turn out when FAM136A (UniProt Q96C01) was run?
Answer: The log2 fold change was inactive: 0.002.

Question: EPHX1 (UniProt P07099) was tested. Which log2 fold change did it give?
Answer: The log2 fold change was inactive: 0.049.

Question: EPM2AIP1 (UniProt Q7L775) was tested. Which log2 fold change did it give?
Answer: The log2 fold change was inactive: 0.026.

Question: How did the log2 fold change turn out when EXOSC8 (UniProt Q96B26) was run?
Answer: The log2 fold change was inactive: 0.028.

Question: How did the log2 fold change turn out when ESRRA (UniProt P11474) was run?
Answer: Its log2 fold change is inactive: -0.11.

Question: Which log2 fold change does the source give for EPCAM (UniProt P16422) here?
Answer: The log2 fold change was inactive: -0.012.

Question: How did the log2 fold change turn out when FAM118A (UniProt Q9NWS6) was run?
Answer: The log2 fold change was inactive: -0.044.

Compound: CS(=O)(=O)CCNCc1ccc(-c2ccc3ncnc(Nc4ccc(OCc5cccc(F)c5)c(Cl)c4)c3c2)o1 [lapatinib]
Assay: as above
Method in brief: as §1

Question: Which log2 fold change does the source give for ERG28 (UniProt Q9UKR5) here?
Answer: Its log2 fold change is inactive: 0.024.

Question: With ERO1B (UniProt Q86YB8) as the target, how does the log2 fold change read?
Answer: Its log2 fold change is inactive: 0.186.

Question: How did the log2 fold change turn out when FAAP100 (UniProt Q0VG06) was run?
Answer: The log2 fold change was inactive: 0.011.

Question: Which log2 fold change does the source give for FAM160B1 (UniProt Q5W0V3) here?
Answer: Its log2 fold change is inactive: 0.009.

Question: With ERAL1 (UniProt O75616) as the target, how does the log2 fold change read?
Answer: Its log2 fold change is inactive: 0.093.

Question: How did the log2 fold change turn out when EWSR1 isoform 5 (UniProt Q01844) was run?
Answer: The log2 fold change was inactive: 0.014.

Question: For FADD (UniProt Q13158), which log2 fold change is on record?
Answer: Its log2 fold change is inactive: 0.065.

Question: With ERGIC2 (UniProt Q96RQ1) as the target, how does the log2 fold change read?
Answer: Its log2 fold change is inactive: 0.01.

Question: With EPS15L1 isoform 2 (UniProt Q9UBC2) as the target, how does the log2 fold change read?
Answer: The log2 fold change was inactive: 0.042.

Question: EXOC6 (UniProt Q8TAG9) was tested. Which log2 fold change did it give?
Answer: The log2 fold change was inactive: -0.052.

Question: For F2 (UniProt P00734), which log2 fold change is on record?
Answer: Its log2 fold change is inactive: 0.

Question: For EXOC8 (UniProt Q8IYI6), which log2 fold change is on record?
Answer: The log2 fold change was inactive: -0.054.

Question: Which log2 fold change does the source give for FAHD1 (UniProt Q6P587) here?
Answer: Its log2 fold change is inactive: -0.032.

Question: ERP29 (UniProt P30040) was tested. Which log2 fold change did it give?
Answer: Its log2 fold change is inactive: -0.007.

Question: How did the log2 fold change turn out when ERCC8 (UniProt Q13216) was run?
Answer: The log2 fold change was inactive: 0.046.

Question: Which log2 fold change does the source give for ERO1A (UniProt Q96HE7) here?
Answer: The log2 fold change was inactive: 0.031.

Question: With EXOSC3 (UniProt Q9NQT5) as the target, how does the log2 fold change read?
Answer: The log2 fold change was inactive: 0.036.

Question: FAM133B (UniProt Q5BKY9) was tested. Which log2 fold change did it give?
Answer: The log2 fold change was inactive: -0.04.

Question: EPHA6 (UniProt Q9UF33) was tested. Which log2 fold change did it give?
Answer: The log2 fold change was inactive: -0.846.

Question: How did the log2 fold change turn out when ERCC6 (UniProt Q03468) was run?
Answer: Its log2 fold change is inactive: 0.077.

Question: Which log2 fold change does the source give for FAM162A (UniProt Q96A26) here?
Answer: Its log2 fold change is inactive: -0.02.

Question: Which log2 fold change does the source give for FABP5 (UniProt Q01469) here?
Answer: The log2 fold change was inactive: 0.064.

Question: How did the log2 fold change turn out when EPRS (UniProt P07814) was run?
Answer: The log2 fold change was inactive: 0.059.

Question: With FAM136A (UniProt Q96C01) as the target, how does the log2 fold change read?
Answer: Its log2 fold change is inactive: -0.019.

Question: With EPHX1 (UniProt P07099) as the target, how does the log2 fold change read?
Answer: Its log2 fold change is inactive: 0.011.

Question: EPM2AIP1 (UniProt Q7L775) was tested. Which log2 fold change did it give?
Answer: Its log2 fold change is inactive: -0.033.

Question: Which log2 fold change does the source give for EXOSC8 (UniProt Q96B26) here?
Answer: Its log2 fold change is inactive: -0.001.

Question: ESRRA (UniProt P11474) was tested. Which log2 fold change did it give?
Answer: Its log2 fold change is inactive: 0.009.

Question: With EPCAM (UniProt P16422) as the target, how does the log2 fold change read?
Answer: Its log2 fold change is inactive: 0.015.

Question: Which log2 fold change does the source give for FAM118A (UniProt Q9NWS6) here?
Answer: The log2 fold change was inactive: 0.

Compound: CS(=O)(=O)N1CCN(Cc2cc3nc(-c4cccc5[nH]ncc45)nc(N4CCOCC4)c3s2)CC1 [pictilisib]
Assay: as above
Method in brief: as §1

Question: With FAAP100 (UniProt Q0VG06) as the target, how does the log2 fold change read?
Answer: The log2 fold change was inactive: -0.067.

Question: With FAM160B1 (UniProt Q5W0V3) as the target, how does the log2 fold change read?
Answer: The log2 fold change was inactive: -0.009.

Question: Which log2 fold change does the source give for EWSR1 isoform 5 (UniProt Q01844) here?
Answer: The log2 fold change was inactive: 0.034.

Question: Which log2 fold change does the source give for ERGIC2 (UniProt Q96RQ1) here?
Answer: The log2 fold change was inactive: -0.077.

Question: With EPS15L1 isoform 2 (UniProt Q9UBC2) as the target, how does the log2 fold change read?
Answer: The log2 fold change was inactive: 0.01.

Question: EXOC6 (UniProt Q8TAG9) was tested. Which log2 fold change did it give?
Answer: Its log2 fold change is inactive: -0.003.

Question: With F2 (UniProt P00734) as the target, how does the log2 fold change read?
Answer: The log2 fold change was inactive: -0.021.

Question: With EXOC8 (UniProt Q8IYI6) as the target, how does the log2 fold change read?
Answer: Its log2 fold change is inactive: -0.156.

Question: With FAHD1 (UniProt Q6P587) as the target, how does the log2 fold change read?
Answer: Its log2 fold change is inactive: -0.107.

Question: ERP29 (UniProt P30040) was tested. Which log2 fold change did it give?
Answer: The log2 fold change was inactive: 0.002.

Question: With ERCC8 (UniProt Q13216) as the target, how does the log2 fold change read?
Answer: The log2 fold change was inactive: 0.078.

Question: ERO1A (UniProt Q96HE7) was tested. Which log2 fold change did it give?
Answer: The log2 fold change was inactive: 0.005.

Question: For EXOSC3 (UniProt Q9NQT5), which log2 fold change is on record?
Answer: Its log2 fold change is inactive: -0.012.

Question: With FAM133B (UniProt Q5BKY9) as the target, how does the log2 fold change read?
Answer: Its log2 fold change is inactive: 0.016.

Question: How did the log2 fold change turn out when ERCC6 (UniProt Q03468) was run?
Answer: Its log2 fold change is inactive: -0.04.

Question: FAM162A (UniProt Q96A26) was tested. Which log2 fold change did it give?
Answer: Its log2 fold change is inactive: -0.063.

Question: How did the log2 fold change turn out when FABP5 (UniProt Q01469) was run?
Answer: Its log2 fold change is inactive: -0.069.

Question: For EPRS (UniProt P07814), which log2 fold change is on record?
Answer: The log2 fold change was inactive: -0.164.

Question: Which log2 fold change does the source give for FAM136A (UniProt Q96C01) here?
Answer: Its log2 fold change is inactive: 0.05.

Question: How did the log2 fold change turn out when EPHX1 (UniProt P07099) was run?
Answer: The log2 fold change was inactive: -0.037.

Question: With EPM2AIP1 (UniProt Q7L775) as the target, how does the log2 fold change read?
Answer: The log2 fold change was inactive: 0.053.

Question: For EXOSC8 (UniProt Q96B26), which log2 fold change is on record?
Answer: The log2 fold change was inactive: -0.025.

Question: ESRRA (UniProt P11474) was tested. Which log2 fold change did it give?
Answer: The log2 fold change was inactive: 0.041.

Question: With EPCAM (UniProt P16422) as the target, how does the log2 fold change read?
Answer: The log2 fold change was inactive: 0.016.

Question: FAM118A (UniProt Q9NWS6) was tested. Which log2 fold change did it give?
Answer: The log2 fold change was inactive: 0.207.
